Publication PMC5084709

B1: RPTP69d full length (receptor, UniProt P16620 29-1462)
chain: SVKQEWAEIGKNVSLECASENEAVAWKLGNQTINKNHTRYKIRTEPLKSNDDGSENNDSQDFIKYKNVLALLDVNIKDSGNYTCTAQTGQNHSTEFQVRPYLPSKVLQSTPDRIKRKIKQDVMLYCLIEMYPQNETTNRNLKWLKDGSQFEFLDTFSSISKLNDTHLNFTLEFTEVYKKENGTYKCTVFDDTGLEITSKEITLFVMEVPQVSIDFAKAVGANKIYLNWTVNDGNDPIQKFFITLQEAGTPTFTYHKDFINGSHTSYILDHFKPNTTYFLRIVGKNSIGNGQPTQYPQGITTLSYDPIFIPKVETTGSTASTITIGWNPPPPDLIDYIQYYELIVSESGEVPKVIEEAIYQQNSRNLPYMFDKLKTATDYEFRVRACSDLTKTCGPWSENVNGTTMDGVATKPTNLSIQCHHDNVTRGNSIAINWDVPKTPNGKVVSYLIHLLGNPMSTVDREMWGPKIRRIDEPHHKTLYESVSPNTNYTVTVSAITRHKKNGEPATGSCLMPVSTPDAIGRTMWSKVNLDSKYVLKLYLPKISERNGPICCYRLYLVRINNDNKELPDPEKLNIATYQEVHSDNVTRSSAYIAEMISSKYFRPEIFLGDEKRFSENNDIIRDNDEICRKCLEGTPFLRKPEIIHIPPQGSLSNSDSELPILSEKDNLIKGANLTEHALKILESKLRDKRNAVTSDENPILSAVNPNVPLHDSSRDVFDGEIDINSNYTGFLEIIVRDRNNALMAYSKYFDIITPATEAEPIQSLNNMDYYLSIGVKAGAVLLGVILVFIVLWVFHHKKTKNELQGEDTLTLRDSLSRALFGRRNHNHSHFITSGNHKGFDAGPIHRLDLENAYKNRHKDTDYGFLREYEMLPNRFSDRTTKNSDLKENACKNRYPDIKAYDQTRVKLAVINGLQTTDYINANFVIGYKERKKFICAQGPMESTIDDFWRMIWEQHLEIIVMLTNLEEYNKAKCAKYWPEKVFDTKQFGDILVKFAQERKTGDYIERTLNVSKNKANVGEEEDRRQITQYHYLTWKDFMAPEHPHGIIKFIRQINSVYSLQRGPILVHCSAGVGRTGTLVALDSLIQQLEEEDSVSIYNTVCDLRHQRNFLVQSLKQYIFLYRALLDTGTFGNTDICIDTMASAIESLKRKPNEGKCKLEVEFEKLLATADEISKSCSVGENEENNMKNRSQEIIPYDRNRVILTPLPMRENSTYINASFIEGYDNSETFIIAQDPLENTIGDFWRMISEQSVTTLVMISEIGDGPRKCPRYWADDEVQYDHILVKYVHSESCPYYTRREFYVTNCKIDDTLKVTQFQYNGWPTVDGEVPEVCRGIIELVDQAYNHYKNNKNSGCRSPLTVHCSLGTDRSSIFVAMCILVQHLRLEKCVDICATTRKLRSQRTGLINSYAQYEFLHRAIINYSDLHHIAESTLD
B2: Slit (ligand, UniProt P24014 37-1504)
chain: EPYSGGFGSSAVSSGGLGSVGIHIPGGGVGVITEARCPRVCSCTGLNVDCSHRGLTSVPRKISADVERLELQGNNLTVIYETDFQRLTKLRMLQLTDNQIHTIERNSFQDLVSLERLRLNNNRLKAIPENFVTSSASLLRLDISNNVITTVGRRVFKGAQSLRSLQLDNNQITCLDEHAFKGLVELEILTLNNNNLTSLPHNIFGGLGRLRALRLSDNPFACDCHLSWLSRFLRSATRLAPYTRCQSPSQLKGQNVADLHDQEFKCSGLTEHAPMECGAENSCPHPCRCADGIVDCREKSLTSVPVTLPDDTTELRLEQNFITELPPKSFSSFRRLRRIDLSNNNISRIAHDALSGLKQLTTLVLYGNKIKDLPSGVFKGLGSLQLLLLNANEISCIRKDAFRDLHSLSLLSLYDNNIQSLANGTFDAMKSIKTVHLAKNPFICDCNLRWLADYLHKNPIETSGARCESPKRMHRRRIESLREEKFKCSWDELRMKLSGECRMDSDCPAMCHCEGTTVDCTGRGLKEIPRDIPLHTTELLLNDNELGRISSDGLFGRLPHLVKLELKRNQLTGIEPNAFEGASHIQELQLGENKIKEISNKMFLGLHQLKTLNLYDNQISCVMPGSFEHLNSLTSLNLASNPFNCNCHLAWFAEWLRKKSLNGGAARCGAPSKVRDVQIKDLPHSEFKCSSENSEGCLGDGYCPPSCTCTGTVVRCSRNQLKEIPRGIPAETSELYLESNEIEQIHYERIRHLRSLTRLDLSNNQITILSNYTFANLTKLSTLIISYNKLQCLQRHALSGLNNLRVLSLHGNRISMLPEGSFEDLKSLTHIALGSNPLYCDCGLKWFSDWIKLDYVEPGIARCAEPEQMKDKLILSTPSSSFVCRGRVRNDILAKCNACFEQPCQNQAQCVALPQREYQCLCQPGYHGKHCEFMIDACYGNPCRNNATCTVLEEGRFSCQCAPGYTGARCETNIDDCLGEIKCQNNATCIDGVESYKCECQPGFSGEFCDTKIQFCSPEFNPCANGAKCMDHFTHYSCDCQAGFHGTNCTDNIDDCQNHMCQNGGTCVDGINDYQCRCPDDYTGKYCEGHNMISMMYPQTSPCQNHECKHGVCFQPNAQGSDYLCRCHPGYTGKWCEYLTSISFVHNNSFVELEPLRTRPEANVTIVFSSAEQNGILMYDGQDAHLAVELFNGRIRVSYDVGNHPVSTMYSFEMVADGKYHAVELLAIKKNFTLRVDRGLARSIINEGSNDYLKLTTPMFLGGLPVDPAQQAYKNWQIRNLTSFKGCMKEVWINHKLVDFGNAQRQQKITPGCALLEGEQQEEEDDEQDFMDETPHIKEEPVDPCLENKCRRGSRCVPNSNARDGYQCKCKHGQRGRYCDQGEGSTEPPTVTAASTCRKEQVREYYTENDCRSRQPLKYAKCVGGCGNQCCAAKIVRRRKVRMVCSNNRKYIKNLDIVRKCGCTKKCY

Tests used:
[1] = molecular target: Robo3-GFP fusion protein (Drosophila); assay: co-IP; Robo3-GFP precipitated with anti-GFP conjugated beads (Chromotek) from RIPA lysates of S2 cells transfected with the RPTP69d constructs; in Figure 7A also with Slit supernatant added
[2] = molecular target: Robo3-GFP fusion protein (Drosophila); assay: co-IP; Slit from the supernatant of S2 stable-expressing cells added to transfected S2 cells 3 days after transfection, cells extracted six hours later; RIPA lysate; Robo3-GFP precipitated with anti-GFP conjugated beads

Row | Binder | binding [1] | binding [2]
1 | B1 | binds | 
2 | B2 |  | binds

Results are given in words; binding and its absence hold for the method and conditions named. In cells and extracts the contact can be indirect. A result given as binding can be weak or reduced; the word gives no strength.
